Our source for the binding values is paper doi:10.1101/2025.01.13.632873.

Protein sequences, listed by entry. Tags and fused reporters are not part of them. Residues count along the entry.
UniProt Q8K2Q9: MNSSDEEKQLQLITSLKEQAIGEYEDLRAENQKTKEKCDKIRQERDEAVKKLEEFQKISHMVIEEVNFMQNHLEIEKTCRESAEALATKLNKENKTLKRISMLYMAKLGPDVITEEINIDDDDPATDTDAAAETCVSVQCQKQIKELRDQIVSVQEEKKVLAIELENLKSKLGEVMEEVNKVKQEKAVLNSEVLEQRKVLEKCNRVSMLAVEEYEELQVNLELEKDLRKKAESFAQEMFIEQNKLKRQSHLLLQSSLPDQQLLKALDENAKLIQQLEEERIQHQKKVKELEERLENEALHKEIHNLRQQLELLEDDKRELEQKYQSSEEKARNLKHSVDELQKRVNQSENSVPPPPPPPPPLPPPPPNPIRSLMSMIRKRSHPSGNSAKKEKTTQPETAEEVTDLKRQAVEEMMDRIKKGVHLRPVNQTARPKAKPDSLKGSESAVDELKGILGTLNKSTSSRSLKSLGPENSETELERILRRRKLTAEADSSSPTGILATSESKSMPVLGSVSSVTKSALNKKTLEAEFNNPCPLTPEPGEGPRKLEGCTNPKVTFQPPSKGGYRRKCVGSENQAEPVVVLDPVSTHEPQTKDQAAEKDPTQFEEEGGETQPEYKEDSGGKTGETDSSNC
UniProt Q60598: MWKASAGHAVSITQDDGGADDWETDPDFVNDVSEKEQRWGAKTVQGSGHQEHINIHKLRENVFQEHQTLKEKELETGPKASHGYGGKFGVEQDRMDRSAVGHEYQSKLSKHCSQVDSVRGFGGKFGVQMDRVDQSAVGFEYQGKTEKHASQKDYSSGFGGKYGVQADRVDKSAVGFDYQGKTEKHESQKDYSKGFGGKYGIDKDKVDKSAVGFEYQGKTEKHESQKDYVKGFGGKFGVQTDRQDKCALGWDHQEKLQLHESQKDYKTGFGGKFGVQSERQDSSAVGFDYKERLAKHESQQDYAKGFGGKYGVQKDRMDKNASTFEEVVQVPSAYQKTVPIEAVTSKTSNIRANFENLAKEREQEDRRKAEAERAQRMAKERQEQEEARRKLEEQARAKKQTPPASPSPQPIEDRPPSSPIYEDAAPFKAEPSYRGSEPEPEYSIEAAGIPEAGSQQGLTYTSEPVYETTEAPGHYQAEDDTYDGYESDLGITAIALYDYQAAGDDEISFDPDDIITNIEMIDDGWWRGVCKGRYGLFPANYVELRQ
UniProt P11627, residues 20-1260: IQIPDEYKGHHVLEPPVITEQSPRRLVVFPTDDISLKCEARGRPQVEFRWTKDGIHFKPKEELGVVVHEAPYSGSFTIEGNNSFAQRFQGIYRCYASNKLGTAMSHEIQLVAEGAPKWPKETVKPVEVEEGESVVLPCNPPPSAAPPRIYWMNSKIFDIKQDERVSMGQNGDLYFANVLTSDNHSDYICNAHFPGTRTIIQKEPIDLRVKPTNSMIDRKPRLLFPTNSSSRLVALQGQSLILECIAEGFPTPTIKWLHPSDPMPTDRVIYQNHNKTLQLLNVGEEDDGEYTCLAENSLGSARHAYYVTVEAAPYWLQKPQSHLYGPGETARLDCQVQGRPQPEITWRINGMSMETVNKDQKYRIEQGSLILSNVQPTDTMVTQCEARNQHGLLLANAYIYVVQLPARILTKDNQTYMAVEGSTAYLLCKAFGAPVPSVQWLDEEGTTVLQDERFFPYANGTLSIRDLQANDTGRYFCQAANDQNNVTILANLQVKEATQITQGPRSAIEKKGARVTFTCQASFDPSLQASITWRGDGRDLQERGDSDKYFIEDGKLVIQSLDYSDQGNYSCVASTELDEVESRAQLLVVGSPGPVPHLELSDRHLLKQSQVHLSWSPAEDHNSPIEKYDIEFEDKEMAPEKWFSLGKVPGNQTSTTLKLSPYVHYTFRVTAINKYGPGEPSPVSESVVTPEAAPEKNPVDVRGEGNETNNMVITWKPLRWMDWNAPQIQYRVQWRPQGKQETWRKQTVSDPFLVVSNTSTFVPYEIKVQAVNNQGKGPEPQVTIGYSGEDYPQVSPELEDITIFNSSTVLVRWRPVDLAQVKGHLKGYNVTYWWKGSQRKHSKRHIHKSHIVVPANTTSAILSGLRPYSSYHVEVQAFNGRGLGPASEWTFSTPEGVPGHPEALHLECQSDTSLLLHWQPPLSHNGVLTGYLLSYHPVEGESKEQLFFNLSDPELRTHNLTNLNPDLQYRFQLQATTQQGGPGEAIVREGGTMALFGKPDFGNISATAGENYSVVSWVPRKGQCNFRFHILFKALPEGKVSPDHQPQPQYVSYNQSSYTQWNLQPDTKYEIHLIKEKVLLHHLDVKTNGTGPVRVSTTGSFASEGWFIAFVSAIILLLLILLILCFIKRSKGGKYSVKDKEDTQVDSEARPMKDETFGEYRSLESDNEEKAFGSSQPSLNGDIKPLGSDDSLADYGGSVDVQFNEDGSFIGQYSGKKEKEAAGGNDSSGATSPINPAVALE

No constants are given. Whether binding was seen depends on the method and setting. In cells and extracts the contact can be indirect. Some entries that bind do so weakly or less than the wild type.

This experiment addresses shootin1b (mouse (endogenous in bone marrow-derived dendritic cells)) (UniProt Q8K2Q9). Put plainly: co-IP.

With cortactin (from UniProt Q60598 1-546), the binding result is listed as “binds”.

For “cell adhesion molecule L1 (from UniProt P11627 20-1260)”, the binding entry is on record as “binds”.
